The record followed here is the supplement of paper PMC10735217.

This is one part of the list. Repeats in this data set agree poorly, so a single value says little.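 The human kidney-derived cells carry a stably integrated construct of eight TEAD-binding elements driving luciferase, read by luminescence in a drug-repurposing library screen. A compound counts as a hit when its signal is more than five robust Z scores above the plate mean.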

This test has as its system HEK293A TEAD-LUC reporter. The experiment in a line: TEAD-luciferase reporter activity (YAP activation), robust Z score vs plate; higher = stronger YAP/TEAD activation. As to conditions: 24 h.

For `CC(=O)NC(Cc1ccccc1)C(=O)O` (stereo unspecified), the TEAD-luciferase reporter activity runs as follows: (compound concentration: 200 nM) inactive: -1.54; (compound concentration: 2 uM) inactive: -1.17; (compound concentration: 10 uM) inactive: -0.0166.

As to `CC(=O)NCCCC(=O)N1CCC2(CC1)CN(C(C)=O)Cc1ccccc1O2`, the TEAD-luciferase reporter activity is inactive: -1.87 (compound concentration: 200 nM) and inactive: 2.46 (compound concentration: 10 uM).

As for `CNC(=O)c1cc2c(Oc3ccc(Cl)cc3)cncc2s1`, the TEAD-luciferase reporter activity is, setting by setting: (compound concentration: 200 nM) inactive: -1.97; (compound concentration: 2 uM) inactive: -1.84; (compound concentration: 10 uM) inactive: -1.29.

With `CC1(C(=O)O)CSC(c2ccc(O)cc2O)=N1` (stereo unspecified), the TEAD-luciferase reporter activity runs as follows: (compound concentration: 200 nM) inactive: -0.563; (compound concentration: 2 uM) inactive: -0.985; (compound concentration: 10 uM) inactive: -0.276.

For `C[C@H]1COc2c(N3CCN(C)CC3)c(F)cc3c(=O)c(C(=O)O)cn1c23`, the TEAD-luciferase reporter activity was inactive: -0.823 (compound concentration: 200 nM) and inactive: -0.0192 (compound concentration: 10 uM).

Regarding `C[C@H]1COc2c(N3CCN(C)CC3)c(F)cc3c(=O)c(C(=O)O)cn1c23` [Levofloxacin], the TEAD-luciferase reporter activity (compound concentration: 2 uM) was inactive: -0.663.

As for `CC1(C)OC(c2ccc(S(N)(=O)=O)cc2)=C(c2cc(F)ccc2F)C1=O`, the TEAD-luciferase reporter activity was inactive: -3.65 (compound concentration: 200 nM), inactive: 0.395 (compound concentration: 2 uM) and inactive: 2.77 (compound concentration: 10 uM).

Consider `CS(=O)c1ccc(-c2nc3n(c2-c2ccncc2)CCC3)cc1` (stereo unspecified), for which the TEAD-luciferase reporter activity (compound concentration: 200 nM) is inactive: -1.04, the TEAD-luciferase reporter activity (compound concentration: 2 uM) is inactive: -0.815 and the TEAD-luciferase reporter activity (compound concentration: 10 uM) was inactive: -1.83.

Take `NCc1cccc(C2CCN(C(=O)c3ccc(C#Cc4ccccc4F)o3)CC2)c1`: the TEAD-luciferase reporter activity by setting is: (compound concentration: 200 nM) inactive: 0.179; (compound concentration: 2 uM) inactive: 2.59; (compound concentration: 10 uM) inactive: -0.83.

`COc1cc2nc(C(C)(C)C)sc2cc1NC(=S)SCCC(=O)O`: the TEAD-luciferase reporter activity by setting is: (compound concentration: 200 nM) inactive: -1.43; (compound concentration: 2 uM) inactive: -0.988; (compound concentration: 10 uM) inactive: 0.809.

With `O=C1C(=O)c2ncccc2-c2cccnc21` [phanqui  , Gerolymatos], the TEAD-luciferase reporter activity (compound concentration: 10 uM) was inactive: 0.278.

Consider `O=C1C(=O)c2ncccc2-c2cccnc21` [phanqui, Gerolymatos], for which the TEAD-luciferase reporter activity (compound concentration: 200 nM) was inactive: 1.17.

Turning to `O=C1C(=O)c2ncccc2-c2cccnc21` [phanqui], the TEAD-luciferase reporter activity (compound concentration: 2 uM) is inactive: -2.38.

`Cc1cccc(B(O)O)c1C`: the TEAD-luciferase reporter activity (compound concentration: 200 nM) is inactive: 0.102, the TEAD-luciferase reporter activity (compound concentration: 2 uM) is inactive: -0.203 and the TEAD-luciferase reporter activity (compound concentration: 10 uM) was inactive: -1.17.

Turning to `O=C1COc2ccccc2C(=O)N1CCCCN1CCN(c2ncccn2)CC1`, the TEAD-luciferase reporter activity by setting is: (compound concentration: 200 nM) inactive: -1.2; (compound concentration: 2 uM) inactive: 0.381; (compound concentration: 10 uM) inactive: -2.46.

Consider `CNS(=O)(=O)Cc1ccc2[nH]cc(CCN(C)C)c2c1` [sumatriptan], for which the TEAD-luciferase reporter activity (compound concentration: 2 uM) was inactive: -0.0999.

`CNS(=O)(=O)Cc1ccc2[nH]cc(CCN(C)C)c2c1`: the TEAD-luciferase reporter activity is inactive: -1.04 (compound concentration: 200 nM) and inactive: -1.97 (compound concentration: 10 uM).

With `CCOC(=O)c1cn2c(C)c(CC)c(OC)nc2n1`, the TEAD-luciferase reporter activity (compound concentration: 200 nM) was inactive: 0.64, the TEAD-luciferase reporter activity (compound concentration: 2 uM) was inactive: -0.803 and the TEAD-luciferase reporter activity (compound concentration: 10 uM) was inactive: -0.832.

Regarding `N[C@@H](CCC(=O)N[C@@H](CS)C(=O)NCC(=O)O)C(=O)O`, the TEAD-luciferase reporter activity (compound concentration: 200 nM) was inactive: 0.834, the TEAD-luciferase reporter activity (compound concentration: 2 uM) was inactive: -0.572 and the TEAD-luciferase reporter activity (compound concentration: 10 uM) is inactive: 0.95.

Turning to `CC1=C(/C=C/C#Cc2ccc(C(=O)O)cc2)C(C)(C)CCC1`, the TEAD-luciferase reporter activity was inactive: 0.067 (compound concentration: 200 nM), inactive: 1.51 (compound concentration: 2 uM) and inactive: -1.52 (compound concentration: 10 uM).

Take `C[C@@H]1COCCN1c1cc(C2([S@](C)(=N)=O)CC2)nc(-c2ccnc3[nH]ccc23)n1`: the TEAD-luciferase reporter activity is inactive: -0.331 (compound concentration: 200 nM), inactive: 0.155 (compound concentration: 2 uM) and inactive: 1.21 (compound concentration: 10 uM).

As to `Nc1ccc(/C=C/C(=O)NC[C@@H]2CN(c3ccc(N4CCOCC4)c(F)c3)C(=O)O2)cc1`, the TEAD-luciferase reporter activity is, setting by setting: (compound concentration: 200 nM) inactive: 0.74; (compound concentration: 2 uM) inactive: 0.923; (compound concentration: 10 uM) inactive: 0.545.

On to `CCC(c1ccc(O)c(F)c1)C(C)c1ccc(O)c(F)c1` (stereo unspecified), for which the TEAD-luciferase reporter activity was inactive: -0.837 (compound concentration: 200 nM), inactive: -0.268 (compound concentration: 2 uM) and inactive: 1.26 (compound concentration: 10 uM).

For the molecule `COc1ccc(C)cc1NC(=O)CCN1CC(N2CCCCC2C)C1` (stereo unspecified), the TEAD-luciferase reporter activity was inactive: 2.81 (compound concentration: 200 nM), inactive: -0.888 (compound concentration: 2 uM) and inactive: -0.726 (compound concentration: 10 uM).

On to `O=C1NCCN1CCN1CCN(C2C[C@H](c3ccc(F)cc3)c3ccccc32)CC1` (stereo partly specified), for which the TEAD-luciferase reporter activity is, setting by setting: (compound concentration: 200 nM) inactive: -1.2; (compound concentration: 2 uM) inactive: -0.41; (compound concentration: 10 uM) inactive: 0.934.

As for `Cc1noc2c1-c1ccccc1C(c1ccc(Cl)cc1)=N[C@H]2CC(N)=O`, the TEAD-luciferase reporter activity reads like this: (compound concentration: 200 nM) inactive: 1.63; (compound concentration: 2 uM) inactive: 2.42; (compound concentration: 10 uM) inactive: 2.21.

`CCCN1CCC2(CCN(C(C)=O)CC2)Oc2ccccc21`: the TEAD-luciferase reporter activity by setting is: (compound concentration: 200 nM) inactive: 3; (compound concentration: 10 uM) inactive: 0.0877.

As for `CCOc1ccccc1OCC1CNCCO1` (stereo unspecified) [viloxazine ER], the TEAD-luciferase reporter activity (compound concentration: 2 uM) was inactive: -0.383.

For `CCOc1ccccc1OCC1CNCCO1` (stereo unspecified) [viloxazine ER, Supernus Pharmaceuticals], the TEAD-luciferase reporter activity reads like this: (compound concentration: 200 nM) inactive: 1.63; (compound concentration: 10 uM) inactive: -1.48.

For the molecule `O=C(NC1CCN(Cc2ccc3c(c2)OCO3)CC1)c1cc(=O)c2cc(F)ccc2o1`, the TEAD-luciferase reporter activity (compound concentration: 200 nM) is inactive: -0.696, the TEAD-luciferase reporter activity (compound concentration: 2 uM) is inactive: -0.44 and the TEAD-luciferase reporter activity (compound concentration: 10 uM) is inactive: 0.556.

Take `Cc1c(Cl)cccc1Nc1ncccc1C(=O)O` [lysine clonixinate]: the TEAD-luciferase reporter activity reads like this: (compound concentration: 200 nM) inactive: -0.197; (compound concentration: 2 uM) inactive: -1.09; (compound concentration: 10 uM) inactive: 1.97.
